# Reference: the supplement of paper PMC8728848
# Some of the results follow.
# Experiments:
# Test in all cases: glycan array binding signal (z-score within array); higher = stronger binding
# Conditions in all cases: glycan notation: IUPAC condensed, linker removed
# Gal(b1-2)Gal = molecular target: Gal(b1-2)Gal
# In short: (§1)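 The binding signal is a Z-score computed within each array. Data were drawn from 3228 arrays in the Consortium for Functional Glycomics database, restricted to those with a known protein sequence. Scores were averaged over arrays of the same protein sequence at different concentrations or buffers, and over linkers, and negative values can be taken as non-binding.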
# Gal(b1-3)Gal = molecular target: Gal(b1-3)Gal
# In short: as §1
# Gal(b1-3)Gal(b1-4)GlcNAc = molecular target: Gal(b1-3)Gal(b1-4)GlcNAc
# In short: as §1
# Gal(b1-3)GalNAc = molecular target: Gal(b1-3)GalNAc
# In short: as §1
# [1] = molecular target: Gal(b1-3)GalNAc(b1-3)Gal(a1-4)Gal(b1-4)Glc
# In short: as §1
# [2] = molecular target: Gal(b1-3)GalNAc(b1-4)Gal(b1-4)Glc
# In short: as §1
# [3] = molecular target: Gal(b1-3)GalNAc(b1-4)[Neu5Ac(a2-3)]Gal(b1-4)Glc
# In short: as §1
# Gal(b1-3)GlcNAc = molecular target: Gal(b1-3)GlcNAc
# In short: as §1
# [4] = molecular target: Gal(b1-3)GlcNAc(b1-2)Man(a1-3)[Gal(b1-3)GlcNAc(b1-2)Man(a1-6)]Man(b1-4)GlcNAc(b1-4)GlcNAc
# In short: as §1
# [5] = molecular target: Gal(b1-3)GlcNAc(b1-3)Gal(b1-3)GlcNAc
# In short: as §1
# [6] = molecular target: Gal(b1-3)GlcNAc(b1-3)Gal(b1-4)Glc
# In short: as §1
# [7] = molecular target: Gal(b1-3)GlcNAc(b1-3)Gal(b1-4)GlcNAc
# In short: as §1
# [8] = molecular target: Gal(b1-3)[Fuc(a1-4)]GlcNAc
# In short: as §1
# [9] = molecular target: Gal(b1-3)[Fuc(a1-4)]GlcNAc(b1-3)Gal(b1-3)[Fuc(a1-4)]GlcNAc
# In short: as §1
# [10] = molecular target: Gal(b1-3)[Fuc(a1-4)]GlcNAc(b1-3)Gal(b1-4)GlcNAc
# In short: as §1
# [11] = molecular target: Gal(b1-3)[Fuc(a1-4)]GlcNAc(b1-3)Gal(b1-4)[Fuc(a1-3)]GlcNAc
# In short: as §1
# [12] = molecular target: Gal(b1-3)[GlcNAc(b1-6)]GalNAc
# In short: as §1
# [13] = molecular target: Gal(b1-3)[Neu5Ac(a2-6)]GalNAc
# In short: as §1
# [14] = molecular target: Gal(b1-3)[Neu5Ac(a2-6)]GlcNAc(b1-6)Gal(b1-4)Glc
# In short: as §1
# [15] = molecular target: Gal(b1-3)[Neu5Ac(b2-6)]GalNAc
# In short: as §1
# [16] = molecular target: Gal(b1-4)GalNAc(a1-3)[Fuc(a1-2)]Gal(b1-4)GlcNAc
# In short: as §1
# [17] = molecular target: Gal(b1-4)GalNAc(b1-3)[Fuc(a1-2)]Gal(b1-4)GlcNAc
# In short: as §1
# Gal(b1-4)Glc = molecular target: Gal(b1-4)Glc
# In short: as §1
# Gal(b1-4)Glc6S = molecular target: Gal(b1-4)Glc6S
# In short: as §1
# Gal(b1-4)GlcNAc = molecular target: Gal(b1-4)GlcNAc
# In short: as §1
# [18] = molecular target: Gal(b1-4)GlcNAc(a1-6)Gal(b1-4)GlcNAc
# In short: as §1
# [19] = molecular target: Gal(b1-4)GlcNAc(b1-2)Man(a1-3)[Gal(b1-4)GlcNAc(b1-2)Man(a1-6)]Man(b1-4)GlcNAc(b1-4)GlcNAc
# In short: as §1
# [20] = molecular target: Gal(b1-4)GlcNAc(b1-3)Gal(b1-3)GlcNAc
# In short: as §1
# [21] = molecular target: Gal(b1-4)GlcNAc(b1-3)Gal(b1-4)Glc
# In short: as §1
# [22] = molecular target: Gal(b1-4)GlcNAc(b1-3)Gal(b1-4)GlcNAc
# In short: as §1
# [23] = molecular target: Gal(b1-4)GlcNAc(b1-3)Gal(b1-4)GlcNAc(b1-3)Gal(b1-4)GlcNAc
# In short: as §1
# [24] = molecular target: Gal(b1-4)GlcNAc(b1-3)Gal(b1-4)[Fuc(a1-3)]GlcNAc(b1-3)Gal(b1-4)[Fuc(a1-3)]GlcNAc
# In short: as §1
# [25] = molecular target: Gal(b1-4)GlcNAc(b1-3)GalNAc
# In short: as §1
# [26] = molecular target: Gal(b1-4)GlcNAc(b1-3)[Gal(b1-4)GlcNAc(b1-6)]Gal(b1-4)GlcNAc
# In short: as §1
# [27] = molecular target: Gal(b1-4)GlcNAc(b1-3)[GlcNAc(b1-6)]Gal(b1-4)GlcNAc
# In short: as §1
# [28] = molecular target: Gal(b1-4)GlcNAc(b1-6)Gal(b1-4)GlcNAc
# In short: as §1
# [29] = molecular target: Gal(b1-4)GlcNAc(b1-6)Gal(b1-4)GlcNAc(b1-6)GalNAc
# In short: as §1
# [30] = molecular target: Gal(b1-4)GlcNAc(b1-6)GalNAc
# In short: as §1
# [31] = molecular target: Gal(b1-4)GlcNAc(b1-6)[Gal(b1-3)]GalNAc
# In short: as §1
# Gal3S(b1-3)GalNAc = molecular target: Gal3S(b1-3)GalNAc
# In short: as §1
# Gal3S(b1-3)GlcNAc = molecular target: Gal3S(b1-3)GlcNAc
# In short: as §1
# [32] = molecular target: Gal3S(b1-3)[Fuc(a1-4)]GlcNAc
# In short: as §1
# Gal3S(b1-4)Glc = molecular target: Gal3S(b1-4)Glc
# In short: as §1
# Gal3S(b1-4)Glc6S = molecular target: Gal3S(b1-4)Glc6S
# In short: as §1
# Gal3S(b1-4)GlcNAc = molecular target: Gal3S(b1-4)GlcNAc
# In short: as §1
# Gal3S(b1-4)GlcNAc6S = molecular target: Gal3S(b1-4)GlcNAc6S
# In short: as §1
# [33] = molecular target: Gal3S(b1-4)[Fuc(a1-3)]Glc
# In short: as §1
# Gal3S4S(b1-4)GlcNAc = molecular target: Gal3S4S(b1-4)GlcNAc
# In short: as §1
# Gal3S6S(b1-4)GlcNAc = molecular target: Gal3S6S(b1-4)GlcNAc
# In short: as §1
# Gal3S6S(b1-4)GlcNAc6S = molecular target: Gal3S6S(b1-4)GlcNAc6S
# In short: as §1
# Gal4S(b1-4)GlcNAc = molecular target: Gal4S(b1-4)GlcNAc
# In short: as §1
# Gal4S6S(b1-4)GlcNAc = molecular target: Gal4S6S(b1-4)GlcNAc
# In short: as §1
# Gal6S(b1-4)Glc = molecular target: Gal6S(b1-4)Glc
# In short: as §1
# Gal6S(b1-4)Glc6S = molecular target: Gal6S(b1-4)Glc6S
# In short: as §1
# Gal6S(b1-4)GlcNAc = molecular target: Gal6S(b1-4)GlcNAc
# In short: as §1
# Gal6S(b1-4)GlcNAc6S = molecular target: Gal6S(b1-4)GlcNAc6S
# In short: as §1
# GalNAc(a1-3)Gal = molecular target: GalNAc(a1-3)Gal
# In short: as §1
# GalNAc(a1-3)GalNAc = molecular target: GalNAc(a1-3)GalNAc
# In short: as §1
# GalNAc(b1-3)Gal = molecular target: GalNAc(b1-3)Gal
# In short: as §1
# [34] = molecular target: GalNAc(b1-3)Gal(a1-4)Gal(b1-4)GlcNAc
# In short: as §1
binder,measurement,setting,value
"CLC (Homo sapiens), Q9UBD9 (protein) MDLRAGDSWGMLACLCTVLWHLPAVPALNRTGDPGPGPSIQKTYDLTRYLEHQLRSLAGTYLNYLGPPFNEPDFNPPRLGAETLPRATVDLEVWRSLNDKLRLTQNYEAYSHLLCYLRGLNRQAATAELRRSLAHFCTSLQGLLGSIAGVMAALGYPLPQPLPGTEPTWTPGPAHSDFLQKMDDFWLLKELQTWLWRSAKDFNRLKKKMQPPAAAVTLHLGAHGF",glycan array binding signal (z-score),Gal(b1-2)Gal,-0.516
same,glycan array binding signal (z-score),Gal(b1-3)Gal,-0.329
same,glycan array binding signal (z-score),Gal(b1-3)Gal(b1-4)GlcNAc,-1.17
same,glycan array binding signal (z-score),Gal(b1-3)GalNAc,-0.946
same,glycan array binding signal (z-score),[1],0.319
same,glycan array binding signal (z-score),[2],-0.663
same,glycan array binding signal (z-score),[3],-0.676
same,glycan array binding signal (z-score),Gal(b1-3)GlcNAc,0.134
same,glycan array binding signal (z-score),[4],-1.01
same,glycan array binding signal (z-score),[5],-0.615
same,glycan array binding signal (z-score),[6],0.888
same,glycan array binding signal (z-score),[7],-0.816
same,glycan array binding signal (z-score),[8],-0.464
same,glycan array binding signal (z-score),[9],0.591
same,glycan array binding signal (z-score),[10],-0.167
same,glycan array binding signal (z-score),[11],0.519
same,glycan array binding signal (z-score),[12],-0.11
same,glycan array binding signal (z-score),[13],0.212
same,glycan array binding signal (z-score),[14],0.381
same,glycan array binding signal (z-score),[15],0.386
same,glycan array binding signal (z-score),[16],-0.814
same,glycan array binding signal (z-score),[17],-0.903
same,glycan array binding signal (z-score),Gal(b1-4)Glc,-0.607
same,glycan array binding signal (z-score),Gal(b1-4)Glc6S,-0.014
same,glycan array binding signal (z-score),Gal(b1-4)GlcNAc,-0.608
same,glycan array binding signal (z-score),[18],0.093
same,glycan array binding signal (z-score),[19],-0.216
same,glycan array binding signal (z-score),[20],0.926
same,glycan array binding signal (z-score),[21],1.25
same,glycan array binding signal (z-score),[22],0.581
same,glycan array binding signal (z-score),[23],-0.565
same,glycan array binding signal (z-score),[24],-0.015
same,glycan array binding signal (z-score),[25],-0.317
same,glycan array binding signal (z-score),[26],-0.7
same,glycan array binding signal (z-score),[27],0.848
same,glycan array binding signal (z-score),[28],-0.353
same,glycan array binding signal (z-score),[29],-0.128
same,glycan array binding signal (z-score),[30],-0.475
same,glycan array binding signal (z-score),[31],0.394
same,glycan array binding signal (z-score),Gal3S(b1-3)GalNAc,-0.144
same,glycan array binding signal (z-score),Gal3S(b1-3)GlcNAc,0.003
same,glycan array binding signal (z-score),[32],0.202
same,glycan array binding signal (z-score),Gal3S(b1-4)Glc,-0.02
same,glycan array binding signal (z-score),Gal3S(b1-4)Glc6S,1.01
same,glycan array binding signal (z-score),Gal3S(b1-4)GlcNAc,-0.271
same,glycan array binding signal (z-score),Gal3S(b1-4)GlcNAc6S,2.02
same,glycan array binding signal (z-score),[33],-0.477
same,glycan array binding signal (z-score),Gal3S4S(b1-4)GlcNAc,0.949
same,glycan array binding signal (z-score),Gal3S6S(b1-4)GlcNAc,0.527
same,glycan array binding signal (z-score),Gal3S6S(b1-4)GlcNAc6S,11.1
same,glycan array binding signal (z-score),Gal4S(b1-4)GlcNAc,0.113
same,glycan array binding signal (z-score),Gal4S6S(b1-4)GlcNAc,2.49
same,glycan array binding signal (z-score),Gal6S(b1-4)Glc,0.061
same,glycan array binding signal (z-score),Gal6S(b1-4)Glc6S,1.8
same,glycan array binding signal (z-score),Gal6S(b1-4)GlcNAc,-0.11
same,glycan array binding signal (z-score),Gal6S(b1-4)GlcNAc6S,1.68
same,glycan array binding signal (z-score),GalNAc(a1-3)Gal,-0.701
same,glycan array binding signal (z-score),GalNAc(a1-3)GalNAc,0.257
same,glycan array binding signal (z-score),GalNAc(b1-3)Gal,-0.876
same,glycan array binding signal (z-score),[34],-1.06

# Reformatted tab-delimited: entries from further up.
binder	measurement	setting	value
CLC (Homo sapiens), Q9UBD9 (protein) MDLRAGDSWGMLACLCTVLWHLPAVPALNRTGDPGPGPSIQKTYDLTRYLEHQLRSLAGTYLNYLGPPFNEPDFNPPRLGAETLPRATVDLEVWRSLNDKLRLTQNYEAYSHLLCYLRGLNRQAATAELRRSLAHFCTSLQGLLGSIAGVMAALGYPLPQPLPGTEPTWTPGPAHSDFLQKMDDFWLLKELQTWLWRSAKDFNRLKKKMQPPAAAVTLHLGAHGF	glycan array binding signal (z-score)	Gal3S(b1-4)Glc	-0.02
same	glycan array binding signal (z-score)	Gal3S(b1-4)Glc6S	1.01
same	glycan array binding signal (z-score)	Gal3S(b1-4)GlcNAc	-0.271
same	glycan array binding signal (z-score)	Gal3S(b1-4)GlcNAc6S	2.02
same	glycan array binding signal (z-score)	[33]	-0.477
same	glycan array binding signal (z-score)	Gal3S4S(b1-4)GlcNAc	0.949
same	glycan array binding signal (z-score)	Gal3S6S(b1-4)GlcNAc	0.527
same	glycan array binding signal (z-score)	Gal3S6S(b1-4)GlcNAc6S	11.1
same	glycan array binding signal (z-score)	Gal4S(b1-4)GlcNAc	0.113
same	glycan array binding signal (z-score)	Gal4S6S(b1-4)GlcNAc	2.49
same	glycan array binding signal (z-score)	Gal6S(b1-4)Glc	0.061
same	glycan array binding signal (z-score)	Gal6S(b1-4)Glc6S	1.8
